This data set is described as follows: Fluorescence turn-on sensing and titration of silver ions. The note with it: for Emission: probe 5 μM in DI-water with Ag^+, excitation 345 nm; for maximum emission wavelength of silver-containing fluorescent solution: with silver ions. The text has this:
The turn-on fluorescence response was instant. The detection of silver ions was highly sensitive and sharp intensity changes could be detected with the naked eye. DLS (Dynamic light scattering) measurement confirmed the formation of nanoparticles. […] This is likely due to the reduction of silver-tetrazole complexes by the strong electron-beam during TEM studies. These emissive silver-compound solid complexes are hardly soluble in a range of solvents, including DMSO, methanol, and water. NMR analysis of these complexes is not possible. The complexes are also resistant to acid/base treatment, or heating by a heat-gun.
In fluorescence spectroscopy, solutions containing silver ions behaved quite differently from solutions without silver ions in terms of intensity, with the ratio of intensity at maximum peak at 504 nm exceeding 400 times (FIGS. 3A-3D). […] By plotting the intensity of maximum intensive peaks against the ratio of ion concentrations, it was expected that the working curve for the quantitative detection of silver ions could be established. […] Meanwhile, the detection limit (LOD) of silver ions is estimated to be 40 nM (S/N=3 and n=11). With a further increase of [Ag^+], the intensity reaches a plateau.
Tetrazole-tagged AIE luminogen TPE-4TTZ (5 μM) undergoes a fluorescence turn-on response towards a solution of silver ions. The solutions can include organic solutions, aqueous solutions including natural water, wastes and/or biological buffer solutions. PL spectra were recorded on a Perkin-Elmer LS 55 spectrofluorometer.
The solutions included organic solutions, aqueous solutions including natural water, wastes and/or biological buffer solutions. For the same probes, the calibration curve varied a little in different solutions. UV spectra were measured on a Biochrom Libra S80PC double beams spectrometer. PL spectra were recorded on a Perkin-Elmer LS 55 spectrofluorometer.

`c1cc(-c2nnn[nH]2)ccc1C(=C(c1ccc(-c2nnn[nH]2)cc1)c1ccc(-c2nnn[nH]2)cc1)c1ccc(-c2nnn[nH]2)cc1` [TPE-4TTZ] registered an Emission of 504 nm.
On to `c1ccc(C(=C(c2ccccc2)c2ccc(-c3nnn[nH]3)cc2)c2ccccc2)cc1` [TPE-1TTZ], for which the Emission is 490 nm and the “maximum emission wavelength of silver-containing fluorescent solution” value is reported as 490 nm.
For the compound `c1ccc(C(=C(c2ccc(-c3nnn[nH]3)cc2)c2ccc(-c3nnn[nH]3)cc2)c2ccccc2)cc1` [TPE-2TTZ], the Emission was 489 nm and the “maximum emission wavelength of silver-containing fluorescent solution” value was 489 nm.

The record behind these values is patent US12029796B2, “Fluorescent probes for silver ION detection” (THE HONG KONG UNIVERSITY OF SCIENCE AND TECHNOLOGY, priority 2017, dated 2024).
